The other results are listed elsewhere or left out.

Protein sequences, listed by entry. Tags and fused reporters are not part of them.
UniProt Q0JBA9, entry or part of it: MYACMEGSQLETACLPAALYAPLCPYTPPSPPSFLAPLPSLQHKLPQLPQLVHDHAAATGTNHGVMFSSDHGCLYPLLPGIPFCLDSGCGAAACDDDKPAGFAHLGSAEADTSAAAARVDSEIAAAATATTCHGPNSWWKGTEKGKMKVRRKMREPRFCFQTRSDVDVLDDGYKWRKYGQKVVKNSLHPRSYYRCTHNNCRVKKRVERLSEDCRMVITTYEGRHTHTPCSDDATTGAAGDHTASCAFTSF

Here are results for 54 sequences from publication PMC7819943, “Rice protein-binding microarrays: a tool to detect cis-acting elements near promoter regions in rice”.

The target of this assay is OsWRKY34 (Oryza sativa, UniProt Q0JBA9 1-250). The experiment in a line: protein-binding microarray (RPBM); PBS, 2% BSA, 51.3 ng/ul salmon testes DNA, 50 uM zinc acetate, 200 nM TF, 25 C, 1 h; high values mean tight binding. To be noted: protein: recombinant; tags: N-terminal polyhistidine and DsRed monomer fusion (pET32a); label: CyDye5-dUTP incorporated in the synthesized complementary strand; 3' TTTTT single-stranded linker to array surface; dsDNA, one strand shown. The method, boiled down:
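Per-feature fluorescence intensity (arbitrary units), read on an Axon 4000B scanner, is the binding signal. Transcription factors carrying an N-terminal polyhistidine tag and DsRed fusion were expressed in E. coli BL21-CodonPlus and purified on Ni–NTA. A custom Agilent array, made double-stranded by primer extension with Cy5-dUTP and blocked with 2% BSA, was incubated with 200 nM protein in PBS, 2% BSA, salmon testes DNA and 50 µM zinc acetate at 25 °C for 1 h and then washed.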
Take “AGTTATTTATTTTGTTGTGGTTTGTTTTATAGTTAAAGGTCGGAGTCACCTAGTGCAG”: the binding signal is 10100 fluorescence intensity (a.u.).

With “ATGAATGGTTTCATACGCGTCTTCTCTCTTTTCTTGATGTCGGAGTCACCTAGTGCAG”, the binding signal was 10500 fluorescence intensity (a.u.).

As to “CCAACTCTTGTCCTCGCGCGAAACCGATCAAAATCCCGGACGGAGTCACCTAGTGCAG”, the binding signal was 9090 fluorescence intensity (a.u.).

Consider “CCCTATACGACACCCTATATAATATCTGATATAACACACTCGGAGTCACCTAGTGCAG”, for which the binding signal was 8660 fluorescence intensity (a.u.).

As for “ATCTTTTTATCGCACGTTTGATCATTCGTTTTATTAATAACGGAGTCACCTAGTGCAG”, the binding signal is 8590 fluorescence intensity (a.u.).

As for “TGTGGATGGAAAAGAGAGAGAGTGTGTGGCAATAAAATCCCGGAGTCACCTAGTGCAG”, the binding signal is 8060 fluorescence intensity (a.u.).

As to “TCACCGTTGGGGCTCGTTGGGGCTCGTTGGGGCTTGAGCCCGGAGTCACCTAGTGCAG”, the binding signal was 9210 fluorescence intensity (a.u.).

Consider “CAAGCTGAACTTCCTACTGCTCTTTCCAAATTTCAAGTTCCGGAGTCACCTAGTGCAG”, for which the binding signal is 8040 fluorescence intensity (a.u.).

With “CGTCGTCGTCGTCTTCTTCTTCAATACTATATACATATAACGGAGTCACCTAGTGCAG”, the binding signal is 8170 fluorescence intensity (a.u.).

Turning to “CGAAAGCCCAGCCCACTCGGCTAAACCCCAACACGCACACCGGAGTCACCTAGTGCAG”, the binding signal was 9460 fluorescence intensity (a.u.).

As to “CTCTCGTCCTGTCTTTGCTAGCTATCCAAATATCGCTATACGGAGTCACCTAGTGCAG”, the binding signal was 10800 fluorescence intensity (a.u.).

On to “GCTTTCCTCTACTTCAATTTGCTAGTACCAGGCTAGTTTCCGGAGTCACCTAGTGCAG”, for which the binding signal is 11400 fluorescence intensity (a.u.).

Turning to “AATAATTTACCCGCACGCAAGCCTGCACGCGAACGTTCGCCGGAGTCACCTAGTGCAG”, the binding signal is 8790 fluorescence intensity (a.u.).

“CACCTCGGACTAATCGATCCCATTTAAATCGCCATCACTCCGGAGTCACCTAGTGCAG”: the binding signal was 9470 fluorescence intensity (a.u.).

As to “TCCCCTAGACTCCTGTCCGCTCAAAACAATTTCCTCCAACCGGAGTCACCTAGTGCAG”, the binding signal is 8380 fluorescence intensity (a.u.).

Take “ATTTGATACAATAATGGGGACTACTAGTGTTTGTTTTTTACGGAGTCACCTAGTGCAG”: the binding signal was 9980 fluorescence intensity (a.u.).

As to “GACTAGTTACTACTTACTCTCTCTTGTTCTAACTACTCTACGGAGTCACCTAGTGCAG”, the binding signal is 8120 fluorescence intensity (a.u.).

Consider “CGGTCAACAAGTAAACGCACGCCCATTCGCTTCTTCACCACGGAGTCACCTAGTGCAG”, for which the binding signal was 9100 fluorescence intensity (a.u.).

With “TGTTGTCTTTGTGTCGTTGTTGCGGCCACCGTCATTGTGCCGGAGTCACCTAGTGCAG”, the binding signal was 11400 fluorescence intensity (a.u.).

For the sequence “GGATCACATTATCTCATACTTGGTCACACAGAAAATTAAACGGAGTCACCTAGTGCAG”, the binding signal is 8210 fluorescence intensity (a.u.).

With “AATATAAGGGATTTTAACTTTTTATTTGCACTGTTTGACCCGGAGTCACCTAGTGCAG”, the binding signal is 8130 fluorescence intensity (a.u.).

As to “CAATACTTTGAAAACAAATAATTGCTGTATGCGTCCATCTCGGAGTCACCTAGTGCAG”, the binding signal was 8420 fluorescence intensity (a.u.).

Turning to “TCCTCTATCCCTTCATACTGATCGTGTTCCCTGGTTGAATCGGAGTCACCTAGTGCAG”, the binding signal was 8060 fluorescence intensity (a.u.).

Turning to “CAGTTATCCTTTCACTGTGCGCCAAACATATCTCAGCTGTCGGAGTCACCTAGTGCAG”, the binding signal is 10300 fluorescence intensity (a.u.).

On to “TGTCATCTGAATTCAACATGTTATACCACACATTGGATCGCGGAGTCACCTAGTGCAG”, for which the binding signal was 10500 fluorescence intensity (a.u.).

In the case of “TTTTCCCGTGCGGGCGACGACCTAGCGCCGGTCCTCCTATCGGAGTCACCTAGTGCAG”, the binding signal is 8020 fluorescence intensity (a.u.).

As for “GGAAGACAATTTTACCATAATTTGGGTGGAGGGGTGTTGGCGGAGTCACCTAGTGCAG”, the binding signal was 8790 fluorescence intensity (a.u.).

With “AACTTCTCTAGCTTTGTCACCCAAGCGCTCAATTTTTTTACGGAGTCACCTAGTGCAG”, the binding signal was 8480 fluorescence intensity (a.u.).

“TTCATGTCAGAATCCTATGTTTTTCCTATTCCTTTGTTTTCGGAGTCACCTAGTGCAG”: the binding signal was 11000 fluorescence intensity (a.u.).

On to “TTACATGTTCTTTTATCTTAACTGTTAACACTATCATGCTCGGAGTCACCTAGTGCAG”, for which the binding signal was 8110 fluorescence intensity (a.u.).

Consider “CTCACTTGTCTTGTTTCTCTTAAATCCAACTCAGCACAAACGGAGTCACCTAGTGCAG”, for which the binding signal is 8180 fluorescence intensity (a.u.).

Regarding “TGGAGGTCGTGGCCTATTTCCGTCGGTTGTTTGTCAAAAACGGAGTCACCTAGTGCAG”, the binding signal is 9070 fluorescence intensity (a.u.).

As to “TTTCGGTCTTTTTTTTGTCCTTTGTTTAGTTTCAGCTTGGCGGAGTCACCTAGTGCAG”, the binding signal is 12400 fluorescence intensity (a.u.).

In the case of “TGTGCGGAGTTGCGGGGTGGTTCACGGCGGGTTCGCTATGCGGAGTCACCTAGTGCAG”, the binding signal is 8380 fluorescence intensity (a.u.).

With “ACTACACCCTCACCTTCACTGGCCACTCCCTCGGCGCCGGCGGAGTCACCTAGTGCAG”, the binding signal is 9740 fluorescence intensity (a.u.).

“CCTAGGTCTCTTGTGCAAATTTCTCGCCGCTTGACTAAATCGGAGTCACCTAGTGCAG”: the binding signal was 9950 fluorescence intensity (a.u.).

In the case of “TGTTGACTTTTTTTATTAACGTTTAGCATTTATCTTATTTCGGAGTCACCTAGTGCAG”, the binding signal was 18000 fluorescence intensity (a.u.).

“CGCTTGTTCTCTTACCATTTTTTTCTGTAATTTATTTTTGCGGAGTCACCTAGTGCAG”: the binding signal is 8200 fluorescence intensity (a.u.).

In the case of “AAAGTTGGGGTCAGGTGGTTTTGGTTCTGTGTTCAAGGGACGGAGTCACCTAGTGCAG”, the binding signal was 11500 fluorescence intensity (a.u.).

Consider “TTCGCCTCCACCTTCATCTGCTCCACCTGCGTCACAGTCACGGAGTCACCTAGTGCAG”, for which the binding signal is 11900 fluorescence intensity (a.u.).

“AAATCTCTTCTACAACTACTACCACCACCTCACCTGCCTTCGGAGTCACCTAGTGCAG”: the binding signal was 10600 fluorescence intensity (a.u.).

As for “TGACTCTTCTACACCTTCCAGGCTATCCGGAATCGGGAGGCGGAGTCACCTAGTGCAG”, the binding signal is 8300 fluorescence intensity (a.u.).

As to “ACACCGCCGCCGTGCGCCTCGCCTCGCCGTCGACCGCGCCCGGAGTCACCTAGTGCAG”, the binding signal was 8590 fluorescence intensity (a.u.).

Consider “ACACGTGCTATATACTCCCTCGATGTCTCTGTCCCAAAATCGGAGTCACCTAGTGCAG”, for which the binding signal is 9360 fluorescence intensity (a.u.).

With “TGGTCCAATATTCACAGTATCCTCTCTTTCCATACTATCCCGGAGTCACCTAGTGCAG”, the binding signal was 8430 fluorescence intensity (a.u.).

Regarding “TTTCCTGTGCTGGAGCTCGACGATTGCATTGGCGCCCGCTCGGAGTCACCTAGTGCAG”, the binding signal was 8390 fluorescence intensity (a.u.).

Regarding “GCTTACGGGCCAGGCCTTTCTCTAACCTGATAACTAGTATCGGAGTCACCTAGTGCAG”, the binding signal was 8750 fluorescence intensity (a.u.).

Consider “AAATGCCTTTTTATGTTGTGGAATTATGATCTGATAAAGGCGGAGTCACCTAGTGCAG”, for which the binding signal is 8910 fluorescence intensity (a.u.).

Take “GTGCGGGTATCATTTGTTTTCTTTTTTATTTCTAGCTTGACGGAGTCACCTAGTGCAG”: the binding signal was 9230 fluorescence intensity (a.u.).

As for “TGCCGCTATCCTCTCGGTCGTATCCCGTTTCTCTGTCTTTCGGAGTCACCTAGTGCAG”, the binding signal is 16100 fluorescence intensity (a.u.).

In the case of “TATTTTTATTATTATATATACTTCCGTCATTCCATATTGACGGAGTCACCTAGTGCAG”, the binding signal is 9790 fluorescence intensity (a.u.).

For the sequence “ACCAACCAACCACTGCTCTCGCCGCGCCGTCCTCTTCATCCGGAGTCACCTAGTGCAG”, the binding signal was 18200 fluorescence intensity (a.u.).

“CCCCATCCATTGCAACGGCAACATACACACACCACCACCACGGAGTCACCTAGTGCAG”: the binding signal is 8350 fluorescence intensity (a.u.).

For “TTACTCTAGCATTCCTCGTCCTGCCCTCTAAAAACAAAAGCGGAGTCACCTAGTGCAG”, the binding signal is 8710 fluorescence intensity (a.u.).
